Data from the supplement of paper PMC6411743.
± gives the standard deviation of the averaged measurements. The list shows a part of the results.

Chains of the proteins cited; added tags and fusions are not shown. Lines headed by an entry give the natural chain unless they say otherwise; changes in a name come on top.
UniProt Q92930: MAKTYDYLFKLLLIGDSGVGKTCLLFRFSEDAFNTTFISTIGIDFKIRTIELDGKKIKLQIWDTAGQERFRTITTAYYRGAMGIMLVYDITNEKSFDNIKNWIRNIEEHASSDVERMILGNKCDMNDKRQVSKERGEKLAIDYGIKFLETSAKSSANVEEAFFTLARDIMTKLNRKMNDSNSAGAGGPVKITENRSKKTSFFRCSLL
UniProt Q969S9: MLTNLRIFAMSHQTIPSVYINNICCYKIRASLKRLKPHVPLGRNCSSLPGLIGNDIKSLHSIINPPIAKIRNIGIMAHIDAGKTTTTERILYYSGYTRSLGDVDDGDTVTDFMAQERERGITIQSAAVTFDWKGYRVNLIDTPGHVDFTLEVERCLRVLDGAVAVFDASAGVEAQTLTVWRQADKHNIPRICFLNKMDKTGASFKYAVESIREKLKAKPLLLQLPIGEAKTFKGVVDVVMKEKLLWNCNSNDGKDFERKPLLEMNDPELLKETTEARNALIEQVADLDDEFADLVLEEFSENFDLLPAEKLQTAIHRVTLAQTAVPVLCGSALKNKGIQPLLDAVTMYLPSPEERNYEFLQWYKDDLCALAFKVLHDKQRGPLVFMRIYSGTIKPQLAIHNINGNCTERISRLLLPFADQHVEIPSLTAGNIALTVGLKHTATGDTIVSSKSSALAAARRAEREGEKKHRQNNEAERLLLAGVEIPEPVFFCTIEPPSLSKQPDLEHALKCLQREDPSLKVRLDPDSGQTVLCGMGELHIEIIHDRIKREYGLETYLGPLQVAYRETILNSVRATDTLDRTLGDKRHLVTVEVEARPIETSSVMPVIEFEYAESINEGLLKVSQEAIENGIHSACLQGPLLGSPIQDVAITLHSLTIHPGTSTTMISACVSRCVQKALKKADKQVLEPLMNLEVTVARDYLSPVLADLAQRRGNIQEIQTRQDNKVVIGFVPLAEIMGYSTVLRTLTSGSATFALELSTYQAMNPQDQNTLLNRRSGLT
UniProt Q96GA3: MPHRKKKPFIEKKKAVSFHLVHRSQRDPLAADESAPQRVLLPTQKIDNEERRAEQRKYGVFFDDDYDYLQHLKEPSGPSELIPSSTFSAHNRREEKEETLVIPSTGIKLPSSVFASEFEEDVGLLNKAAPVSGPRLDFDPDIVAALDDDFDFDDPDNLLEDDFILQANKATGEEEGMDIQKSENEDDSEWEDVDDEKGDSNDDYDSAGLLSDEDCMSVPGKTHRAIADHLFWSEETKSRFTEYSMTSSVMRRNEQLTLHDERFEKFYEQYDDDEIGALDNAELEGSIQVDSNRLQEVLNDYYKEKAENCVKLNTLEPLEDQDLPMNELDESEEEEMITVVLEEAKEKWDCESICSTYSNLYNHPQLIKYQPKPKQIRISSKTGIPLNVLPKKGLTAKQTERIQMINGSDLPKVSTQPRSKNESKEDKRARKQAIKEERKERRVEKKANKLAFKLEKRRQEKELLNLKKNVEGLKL
UniProt Q8WW12: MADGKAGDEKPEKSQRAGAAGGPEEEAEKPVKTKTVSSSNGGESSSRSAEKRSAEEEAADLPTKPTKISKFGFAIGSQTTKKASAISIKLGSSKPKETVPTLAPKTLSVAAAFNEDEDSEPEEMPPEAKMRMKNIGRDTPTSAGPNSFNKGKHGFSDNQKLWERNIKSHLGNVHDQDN
UniProt Q96HW7, whole entry: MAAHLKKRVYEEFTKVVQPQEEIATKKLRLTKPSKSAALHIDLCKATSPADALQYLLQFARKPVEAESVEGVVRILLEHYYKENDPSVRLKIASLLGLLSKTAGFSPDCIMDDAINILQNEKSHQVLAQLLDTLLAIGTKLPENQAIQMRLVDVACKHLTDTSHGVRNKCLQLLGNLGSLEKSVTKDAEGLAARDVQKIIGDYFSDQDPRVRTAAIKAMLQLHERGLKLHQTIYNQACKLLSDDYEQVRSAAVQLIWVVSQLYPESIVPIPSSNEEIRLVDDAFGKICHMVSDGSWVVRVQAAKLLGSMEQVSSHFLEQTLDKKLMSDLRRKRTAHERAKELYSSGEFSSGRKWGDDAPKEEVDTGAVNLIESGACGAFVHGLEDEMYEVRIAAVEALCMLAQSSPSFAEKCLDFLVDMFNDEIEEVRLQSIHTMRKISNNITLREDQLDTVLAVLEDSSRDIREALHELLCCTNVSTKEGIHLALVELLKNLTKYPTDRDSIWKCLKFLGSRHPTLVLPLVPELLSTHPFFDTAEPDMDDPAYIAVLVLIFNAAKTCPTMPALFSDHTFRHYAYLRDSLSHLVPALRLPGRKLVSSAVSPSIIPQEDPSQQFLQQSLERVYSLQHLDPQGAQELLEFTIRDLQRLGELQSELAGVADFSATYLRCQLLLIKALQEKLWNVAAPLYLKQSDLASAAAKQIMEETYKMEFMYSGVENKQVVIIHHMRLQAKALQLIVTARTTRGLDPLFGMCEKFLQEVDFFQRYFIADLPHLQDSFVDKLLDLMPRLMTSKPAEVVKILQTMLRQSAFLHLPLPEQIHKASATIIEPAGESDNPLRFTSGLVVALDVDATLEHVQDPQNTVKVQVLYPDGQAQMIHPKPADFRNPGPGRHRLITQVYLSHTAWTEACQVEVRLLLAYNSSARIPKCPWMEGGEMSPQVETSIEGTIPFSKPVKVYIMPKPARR
UniProt Q96I24: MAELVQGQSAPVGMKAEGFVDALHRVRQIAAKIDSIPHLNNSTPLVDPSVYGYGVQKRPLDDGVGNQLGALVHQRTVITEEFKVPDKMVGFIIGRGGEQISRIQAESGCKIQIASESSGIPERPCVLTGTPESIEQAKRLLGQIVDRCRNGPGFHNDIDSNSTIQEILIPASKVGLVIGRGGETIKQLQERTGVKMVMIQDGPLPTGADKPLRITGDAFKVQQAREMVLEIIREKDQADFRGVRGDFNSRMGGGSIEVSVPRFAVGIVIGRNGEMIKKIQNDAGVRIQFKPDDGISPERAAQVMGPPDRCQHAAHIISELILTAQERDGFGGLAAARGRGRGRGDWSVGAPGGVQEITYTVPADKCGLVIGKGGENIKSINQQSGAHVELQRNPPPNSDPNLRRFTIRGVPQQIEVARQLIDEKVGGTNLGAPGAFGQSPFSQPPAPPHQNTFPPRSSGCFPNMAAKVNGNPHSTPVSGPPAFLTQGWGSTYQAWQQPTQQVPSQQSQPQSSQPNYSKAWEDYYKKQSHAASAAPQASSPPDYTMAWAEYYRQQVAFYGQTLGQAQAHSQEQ
UniProt Q92905, whole entry, looked up: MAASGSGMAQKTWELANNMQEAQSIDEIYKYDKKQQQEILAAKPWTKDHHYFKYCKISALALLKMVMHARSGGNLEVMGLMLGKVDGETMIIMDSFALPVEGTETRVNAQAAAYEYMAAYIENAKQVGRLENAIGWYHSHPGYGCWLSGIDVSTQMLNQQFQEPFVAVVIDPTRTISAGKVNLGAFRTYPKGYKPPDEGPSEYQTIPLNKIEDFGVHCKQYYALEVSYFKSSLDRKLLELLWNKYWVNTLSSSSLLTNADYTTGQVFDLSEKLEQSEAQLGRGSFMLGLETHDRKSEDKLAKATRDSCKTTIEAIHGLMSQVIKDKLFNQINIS
UniProt Q92896: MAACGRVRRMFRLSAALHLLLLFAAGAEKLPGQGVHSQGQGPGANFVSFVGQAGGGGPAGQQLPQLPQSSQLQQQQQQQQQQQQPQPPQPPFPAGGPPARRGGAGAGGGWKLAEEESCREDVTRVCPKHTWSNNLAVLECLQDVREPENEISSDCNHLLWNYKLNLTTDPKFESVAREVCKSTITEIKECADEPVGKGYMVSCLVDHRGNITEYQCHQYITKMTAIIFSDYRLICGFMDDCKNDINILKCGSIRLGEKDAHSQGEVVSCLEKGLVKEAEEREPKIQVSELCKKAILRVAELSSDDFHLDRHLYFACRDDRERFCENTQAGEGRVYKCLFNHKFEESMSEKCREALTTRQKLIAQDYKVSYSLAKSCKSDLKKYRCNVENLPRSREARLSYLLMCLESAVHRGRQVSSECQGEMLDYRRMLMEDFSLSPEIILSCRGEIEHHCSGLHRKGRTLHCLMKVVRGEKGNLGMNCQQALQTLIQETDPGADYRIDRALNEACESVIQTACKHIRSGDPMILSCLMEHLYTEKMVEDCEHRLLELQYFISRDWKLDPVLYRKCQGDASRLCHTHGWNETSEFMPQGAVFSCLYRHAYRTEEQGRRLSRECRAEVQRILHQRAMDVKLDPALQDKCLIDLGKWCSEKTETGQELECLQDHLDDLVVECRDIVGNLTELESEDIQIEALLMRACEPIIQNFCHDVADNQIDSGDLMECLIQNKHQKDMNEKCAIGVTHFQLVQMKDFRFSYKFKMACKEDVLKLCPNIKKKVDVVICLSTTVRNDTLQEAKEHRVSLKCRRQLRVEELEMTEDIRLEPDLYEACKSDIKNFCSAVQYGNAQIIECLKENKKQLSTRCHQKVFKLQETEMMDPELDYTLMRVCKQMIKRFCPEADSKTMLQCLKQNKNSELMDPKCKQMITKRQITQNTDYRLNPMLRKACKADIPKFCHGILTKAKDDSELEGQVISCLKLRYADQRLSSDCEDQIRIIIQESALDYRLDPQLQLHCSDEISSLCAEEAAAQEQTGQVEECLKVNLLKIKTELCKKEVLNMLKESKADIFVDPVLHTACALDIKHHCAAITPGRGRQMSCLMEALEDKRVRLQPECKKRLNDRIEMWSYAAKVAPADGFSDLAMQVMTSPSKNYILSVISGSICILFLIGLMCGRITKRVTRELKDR
UniProt Q92947: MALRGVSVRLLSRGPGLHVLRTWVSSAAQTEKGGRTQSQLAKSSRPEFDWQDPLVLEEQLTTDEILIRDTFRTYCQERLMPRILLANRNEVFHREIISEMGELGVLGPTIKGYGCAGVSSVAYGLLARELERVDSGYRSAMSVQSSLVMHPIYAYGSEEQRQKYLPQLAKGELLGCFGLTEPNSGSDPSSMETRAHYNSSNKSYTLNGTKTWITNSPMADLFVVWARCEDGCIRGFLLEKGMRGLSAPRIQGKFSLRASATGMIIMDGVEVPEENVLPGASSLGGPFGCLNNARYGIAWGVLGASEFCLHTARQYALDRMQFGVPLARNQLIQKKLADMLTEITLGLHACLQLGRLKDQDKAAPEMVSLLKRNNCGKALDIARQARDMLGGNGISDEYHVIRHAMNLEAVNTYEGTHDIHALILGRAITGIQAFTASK
UniProt Q96BP3: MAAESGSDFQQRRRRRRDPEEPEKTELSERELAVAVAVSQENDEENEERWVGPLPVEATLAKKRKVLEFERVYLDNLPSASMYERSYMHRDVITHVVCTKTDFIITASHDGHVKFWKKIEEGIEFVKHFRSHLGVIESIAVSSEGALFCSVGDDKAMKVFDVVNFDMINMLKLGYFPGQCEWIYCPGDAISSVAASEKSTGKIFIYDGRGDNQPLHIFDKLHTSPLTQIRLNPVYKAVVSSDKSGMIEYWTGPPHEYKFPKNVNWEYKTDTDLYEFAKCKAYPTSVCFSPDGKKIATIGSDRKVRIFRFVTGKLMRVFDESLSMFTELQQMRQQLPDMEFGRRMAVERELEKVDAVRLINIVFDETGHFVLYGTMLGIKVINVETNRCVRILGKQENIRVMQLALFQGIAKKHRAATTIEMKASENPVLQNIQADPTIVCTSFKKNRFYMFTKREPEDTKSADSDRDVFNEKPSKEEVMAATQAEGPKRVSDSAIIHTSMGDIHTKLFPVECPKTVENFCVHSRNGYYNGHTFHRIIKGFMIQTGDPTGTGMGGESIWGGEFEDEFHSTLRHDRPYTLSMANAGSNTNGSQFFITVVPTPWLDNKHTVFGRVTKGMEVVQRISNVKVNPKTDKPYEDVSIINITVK
UniProt Q96EY1: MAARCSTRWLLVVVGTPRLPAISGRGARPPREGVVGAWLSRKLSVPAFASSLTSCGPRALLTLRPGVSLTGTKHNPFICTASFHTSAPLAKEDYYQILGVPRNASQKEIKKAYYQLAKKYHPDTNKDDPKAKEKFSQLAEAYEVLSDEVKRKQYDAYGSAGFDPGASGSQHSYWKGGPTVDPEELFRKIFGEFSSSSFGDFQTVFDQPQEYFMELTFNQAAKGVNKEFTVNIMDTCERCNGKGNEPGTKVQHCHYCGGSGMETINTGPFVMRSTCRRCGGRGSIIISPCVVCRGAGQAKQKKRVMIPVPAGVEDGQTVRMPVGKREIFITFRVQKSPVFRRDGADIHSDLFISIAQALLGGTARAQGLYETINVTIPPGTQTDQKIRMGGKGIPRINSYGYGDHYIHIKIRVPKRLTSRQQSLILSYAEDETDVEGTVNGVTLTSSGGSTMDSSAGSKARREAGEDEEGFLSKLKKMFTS
UniProt Q96D96: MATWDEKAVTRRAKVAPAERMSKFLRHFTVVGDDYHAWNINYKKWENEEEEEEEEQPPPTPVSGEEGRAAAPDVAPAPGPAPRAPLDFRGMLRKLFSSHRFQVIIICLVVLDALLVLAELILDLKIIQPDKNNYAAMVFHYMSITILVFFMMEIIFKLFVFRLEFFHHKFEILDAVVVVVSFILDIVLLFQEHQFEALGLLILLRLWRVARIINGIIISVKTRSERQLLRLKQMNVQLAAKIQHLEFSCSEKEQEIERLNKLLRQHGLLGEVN

Compound: Nc1nc2c(ncn2[C@@H]2O[C@H](COP(=O)(O)OP(=O)(O)OP(=O)(O)O)[C@@H](O)[C@H]2O)c(=O)[nH]1 [guanosine triphosphate]
Test: NP40-soluble protein abundance relative to vehicle (solubility fold change) (ratio); higher = more soluble protein in presence of GTP
Summary of the method: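 Eight concentrations, 0.1 to 10 mM, were tested on Jurkat crude lysate for 10 min at room temperature and then 3 min at 37 °C, in three independent experiments. The lysate was solubilised with 0.8% NP40 and benzonase, ultracentrifuged, and the supernatant TMT-labelled for LC-MS/MS. Each value is the fold change against the detergent-processed vehicle in its own replicate, from vsn-normalised intensities.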

Target	NP40-soluble protein abundance (concentration: 0.1mM)	NP40-soluble protein abundance (concentration: 0.5mM)	NP40-soluble protein abundance (concentration: 1mM)	NP40-soluble protein abundance (concentration: 2mM)	NP40-soluble protein abundance (concentration: 4mM)	NP40-soluble protein abundance (concentration: 6mM)	NP40-soluble protein abundance (concentration: 8mM)	NP40-soluble protein abundance (concentration: 10mM)
RAB8B (UniProt Q92930)	0.966 ± 0.018	0.949 ± 0.031	0.923 ± 0.03	0.853 ± 0.049	0.853 ± 0.051	0.845 ± 0.061	0.845 ± 0.044	0.808 ± 0.066
UniProt Q969S9 and related entries	0.999 ± 0.11	1.03 ± 0.051	0.971 ± 0.12	0.981 ± 0.12	0.981 ± 0.084	0.969 ± 0.1	0.972 ± 0.15	0.921 ± 0.074
LTV1 (UniProt Q96GA3)	1.05 ± 0.11	1.06 ± 0.12	1.17 ± 0.14	1.16 ± 0.11	1.12 ± 0.16	1.09 ± 0.12	1.08 ± 0.17	1.08 ± 0.21
PCNP (UniProt Q8WW12)	0.932 ± 0.022	0.996 ± 0.037	1.07 ± 0.041	1.05 ± 0.019	1.04 ± 0.027	1.08 ± 0.048	1.15 ± 0.049	1.2 ± 0.036
UniProt Q96HW7 and related entries	1.11 ± 0.03	1.15 ± 0.068	1.18 ± 0.089	1.27 ± 0.15	1.36 ± 0.13	1.3 ± 0.15	1.39 ± 0.18	1.3 ± 0.17
FUBP3 (UniProt Q96I24)	0.958 ± 0.053	0.948 ± 0.065	0.951 ± 0.066	0.919 ± 0.089	0.907 ± 0.073	0.916 ± 0.076	0.927 ± 0.054	0.914 ± 0.069
AKAP1 (UniProt Q92667)	0.974 ± 0.062	0.973 ± 0.057	0.979 ± 0.053	0.95 ± 0.055	0.96 ± 0.053	0.958 ± 0.064	1 ± 0.069	1 ± 0.068
UniProt Q92973 and related entries	0.979 ± 0.05	0.949 ± 0.039	0.883 ± 0.067	0.936 ± 0.053	0.914 ± 0.037	0.865 ± 0.05	0.827 ± 0.07	0.8781 ± 0.0075
UniProt Q96J84 and related entries	1.1 ± 0.061	1.11 ± 0.2	1.09 ± 0.11	1.09 ± 0.03	1.174 ± 0.011	1.07 ± 0.052	1.03 ± 0.062	1.06 ± 0.11
COPS5 (UniProt Q92905)	1.05 ± 0.025	1.04 ± 0.047	1.05 ± 0.032	1.04 ± 0.044	1.03 ± 0.046	1 ± 0.076	1 ± 0.048	0.976 ± 0.057
USP7 (UniProt Q93009)	1.05 ± 0.048	1.07 ± 0.086	0.997 ± 0.049	1.01 ± 0.085	1 ± 0.073	1 ± 0.066	0.979 ± 0.049	0.937 ± 0.077
ZC3HAV1L (UniProt Q96H79)	0.955 ± 0.022	0.981 ± 0.025	0.954 ± 0.023	0.938 ± 0.042	0.907 ± 0.044	0.914 ± 0.021	0.897 ± 0.027	0.929 ± 0.059
UniProt Q96F63 and related entries	0.92 ± 0.086	0.932 ± 0.044	1.1 ± 0.14	1.07 ± 0.08	1.06 ± 0.11	1.06 ± 0.082	1.08 ± 0.13	1.14 ± 0.16
UniProt Q96DI7 and related entries	1.1 ± 0.14	1.12 ± 0.14	1.18 ± 0.15	1.24 ± 0.15	1.42 ± 0.26	1.48 ± 0.26	1.65 ± 0.38	1.65 ± 0.39
UniProt Q92466 and related entries	1.09 ± 0.068	1.11 ± 0.077	1.11 ± 0.052	1.17 ± 0.12	1.21 ± 0.13	1.17 ± 0.11	1.2 ± 0.15	1.17 ± 0.11
UniProt Q92896 and related entries	0.952 ± 0.059	0.943 ± 0.053	0.962 ± 0.057	0.922 ± 0.062	0.923 ± 0.064	0.926 ± 0.062	0.948 ± 0.043	0.938 ± 0.057
PNPLA2 (UniProt Q96AD5)	1.01 ± 0.038	0.995 ± 0.099	0.981 ± 0.03	1.03 ± 0.047	0.959 ± 0.092	0.973 ± 0.15	0.956 ± 0.031	0.9718 ± 0.0044
OSTF1 (UniProt Q92882)	0.887 ± 0.047	0.879 ± 0.07	0.927 ± 0.12	0.869 ± 0.14	0.848 ± 0.13	0.845 ± 0.11	0.853 ± 0.11	0.854 ± 0.09
UniProt Q92947 and related entries	0.949 ± 0.016	0.974 ± 0.033	0.8627 ± 0.0084	0.902 ± 0.045	0.876 ± 0.053	0.862 ± 0.021	0.813 ± 0.029	0.856 ± 0.046
PPWD1 (UniProt Q96BP3)	1.05 ± 0.074	1.03 ± 0.042	0.989 ± 0.074	1.08 ± 0.12	1.14 ± 0.12	1.13 ± 0.084	1.12 ± 0.074	1.17 ± 0.16
UniProt Q93050 and related entries	1.04 ± 0.099	1.13 ± 0.071	1.02 ± 0.062	1.05 ± 0.097	1.085 ± 0.0057	1.1 ± 0.033	1.08 ± 0.048	1.03 ± 0.079
UniProt Q96E29 and related entries	1.01 ± 0.099	1.01 ± 0.046	1.05 ± 0.069	0.961 ± 0.091	1.01 ± 0.075	0.92 ± 0.095	0.941 ± 0.12	0.946 ± 0.056
UniProt Q96D53 and related entries	0.865 ± 0.041	1.02 ± 0.03	0.983 ± 0.051	0.982 ± 0.022	0.965 ± 0.14	1.02 ± 0.14	0.854 ± 0.052	0.871 ± 0.019
PRCC (UniProt Q92733)	0.958 ± 0.012	0.947 ± 0.051	1.05 ± 0.033	0.992 ± 0.071	0.953 ± 0.057	0.939 ± 0.084	0.948 ± 0.042	0.938 ± 0.026
Sirt1 (UniProt Q96EB6)	1.01 ± 0.016	0.994 ± 0.039	1.02 ± 0.039	0.965 ± 0.036	0.937 ± 0.072	0.956 ± 0.056	0.944 ± 0.022	0.964 ± 0.027
DNAJA3 (UniProt Q96EY1)	1.04 ± 0.016	1.05 ± 0.082	1.11 ± 0.11	1.17 ± 0.069	1.26 ± 0.12	1.25 ± 0.12	1.28 ± 0.14	1.28 ± 0.11
DPF2 (UniProt Q92785)	1.013 ± 0.0027	1.1 ± 0.058	1.1 ± 0.046	1.14 ± 0.1	1.14 ± 0.14	1.16 ± 0.15	1.2 ± 0.18	1.19 ± 0.22
GPKOW (UniProt Q92917)	0.974 ± 0.07	0.995 ± 0.067	1.02 ± 0.077	0.975 ± 0.086	0.968 ± 0.071	0.99 ± 0.059	0.998 ± 0.057	1.01 ± 0.088
UniProt Q96D96 and related entries	1.08 ± 0.022	1.05 ± 0.013	1.03 ± 0.046	1.02 ± 0.065	1.038 ± 0.0064	1.06 ± 0.033	1.01 ± 0.074	1.01 ± 0.021
UniProt Q96AQ6 and related entries	0.977 ± 0.073	0.935 ± 0.11	0.945 ± 0.056	0.961 ± 0.096	0.997 ± 0.048	0.968 ± 0.098	0.996 ± 0.061	1.02 ± 0.12

Nothing new here: an excerpt of the list.
Target	NP40-soluble protein abundance (concentration: 0.1mM)	NP40-soluble protein abundance (concentration: 0.5mM)	NP40-soluble protein abundance (concentration: 1mM)	NP40-soluble protein abundance (concentration: 2mM)	NP40-soluble protein abundance (concentration: 4mM)	NP40-soluble protein abundance (concentration: 6mM)	NP40-soluble protein abundance (concentration: 8mM)	NP40-soluble protein abundance (concentration: 10mM)
FUBP3 (UniProt Q96I24)	0.958 ± 0.053	0.948 ± 0.065	0.951 ± 0.066	0.919 ± 0.089	0.907 ± 0.073	0.916 ± 0.076	0.927 ± 0.054	0.914 ± 0.069
AKAP1 (UniProt Q92667)	0.974 ± 0.062	0.973 ± 0.057	0.979 ± 0.053	0.95 ± 0.055	0.96 ± 0.053	0.958 ± 0.064	1 ± 0.069	1 ± 0.068
UniProt Q92973 and related entries	0.979 ± 0.05	0.949 ± 0.039	0.883 ± 0.067	0.936 ± 0.053	0.914 ± 0.037	0.865 ± 0.05	0.827 ± 0.07	0.8781 ± 0.0075
UniProt Q96J84 and related entries	1.1 ± 0.061	1.11 ± 0.2	1.09 ± 0.11	1.09 ± 0.03	1.174 ± 0.011	1.07 ± 0.052	1.03 ± 0.062	1.06 ± 0.11
COPS5 (UniProt Q92905)	1.05 ± 0.025	1.04 ± 0.047	1.05 ± 0.032	1.04 ± 0.044	1.03 ± 0.046	1 ± 0.076	1 ± 0.048	0.976 ± 0.057
